Values from PubChem BioAssay AID1259405 (NCATS, 2018).
In all, the deposit lists about 50,000 reagents; shown is a random part of them. About 4,000 of them (8%) count as active. 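Mouse siRNA library applied to hamster cells; one well for each siRNA.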 Unmarked entries are inactive. Reagents against one gene are numbered here.

- Screen: 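Silenced genes that increase secreted GFP made by CHO cells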 (primary screen)
- System: Chinese hamster CHO-K1 ovary cells with stable secreted eGFP expression
- Reagents: single siRNA against mouse genes, 0.8 pmol siRNA per well (2 µl of 400 nM stock)
- Duration: 3 days
- Detection: 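Per-well intracellular GFP measured by laser scanning cytometry, plus viability from ATP luminescence, each relative to plate median of non-targeting control wells, in %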
- Reading the numbers: GFP, % of control: higher = more GFP per well, higher productivity; viability (ATP), % of control: higher = more viable cells (more ATP)
- Hit rule: 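Called active when intracellular GFP, relative to negative control, is at or above 120%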

target | reagent | GFP, % of control | viability (ATP), % of control
Alox15 | 1 | 78.3 | 83.7
Alox15 | 2 | 93.7 | 82.1
Alox15 | 3 | 69.6 | 37.5
Veph1 | 1 | 200 (active) | 62.8
Veph1 | 2 | 27.1 | 16.2
Veph1 | 3 | 79.8 | 71.1
Zkscan14 | 1 | 73.2 | 65.9
Zkscan14 | 2 | 80.4 | 102
Wtip | 1 | 71.1 | 90.7
Wtip | 2 | 61.7 | 62.1
Gas2l1 | 1 | 88 | 77.3
Gas2l1 | 2 | 62.5 | 59
Gas2l1 | 3 | 80 | 101
Sucnr1 | 1 | 140 (active) | 93.3
Sucnr1 | 2 | 47.7 | 74.1
Sucnr1 | 3 | 74.9 | 67.6
Zfp647 | 1 | 83.9 | 71.5
Zfp647 | 2 | 88.7 | 76.1
Rbm12 | 1 | 81.6 | 50.8
Rbm12 | 2 | 88.7 | 76.6
Rbm12 | 3 | 100 | 77.8
Gramd1a | 1 | 58.6 | 86.8
Gramd1a | 2 | 31.4 | 64.1
Gramd1a | 3 | 54.4 | 35.5
Mlxip | 1 | 56.5 | 50.1
Mlxip | 2 | 53.6 | 61.6
Mlxip | 3 | 50 | 83.6
Dip2b | 1 | 79.7 | 71.3
Dip2b | 2 | 74.9 | 60.8
Dip2b | 3 | 89 | 80.2
Nxpe4 | 1 | 75 | 54.7
Nxpe4 | 2 | 61.2 | 83.6
Nxpe4 | 3 | 116 | 121
1810009N02Rik | 1 | 121 (active) | 106
1810009N02Rik | 2 | 53.7 | 59.1
1810009N02Rik | 3 | 49.2 | 94
Mab21l4 | 1 | 73.4 | 78.7
Mab21l4 | 2 | 20.7 | 25.9
Mab21l4 | 3 | 82.9 | 96.8
Ccn3 | 1 | 62.3 | 63.9
Ccn3 | 2 | 88.1 | 60.3
Ccn3 | 3 | 59.7 | 72.9
Vdac1 | 1 | 130 (active) | 106
Vdac1 | 2 | 45.4 | 45.1
Vdac1 | 3 | 29.5 | 75.6
Gpr82 | 1 | 139 (active) | 107
Gpr82 | 2 | 84.2 | 69.6
Gpr82 | 3 | 72.3 | 73.9
Hs3st1 | 1 | 75 | 62.4
Hs3st1 | 2 | 132 (active) | 112
Hs3st1 | 3 | 74.8 | 103
Speer4b | 1 | 134 (active) | 119
Speer4b | 2 | 64.9 | 81.8
Speer4b | 3 | 218 (active) | 135
Insrr | 1 | 137 (active) | 93.5
Hand2 | 1 | 86.8 | 59.3
Hand2 | 2 | 100 | 93.7
Or51a39 | 1 | 53.5 | 52.1
Or51a39 | 2 | 86.2 | 65.3
Or51a39 | 3 | 40.3 | 87.1
Ggct | 1 | 63.4 | 54.7
Ggct | 2 | 83.6 | 87.8
Ggct | 3 | 74.5 | 87.3
Acadl | 1 | 77.7 | 64.3
Acadl | 2 | 22.9 | 39.6
Acadl | 3 | 73.9 | 81.2
Edaradd | 1 | 70.9 | 79.2
Edaradd | 2 | 130 (active) | 111
Edaradd | 3 | 77 | 71

14 consecutive reagents already listed:
target | reagent | GFP, % of control | viability (ATP), % of control
Speer4b | 3 | 218 (active) | 135
Insrr | 1 | 137 (active) | 93.5
Hand2 | 1 | 86.8 | 59.3
Hand2 | 2 | 100 | 93.7
Or51a39 | 1 | 53.5 | 52.1
Or51a39 | 2 | 86.2 | 65.3
Or51a39 | 3 | 40.3 | 87.1
Ggct | 1 | 63.4 | 54.7
Ggct | 2 | 83.6 | 87.8
Ggct | 3 | 74.5 | 87.3
Acadl | 1 | 77.7 | 64.3
Acadl | 2 | 22.9 | 39.6
Acadl | 3 | 73.9 | 81.2
Edaradd | 1 | 70.9 | 79.2

Further entries follow:
target | reagent | GFP, % of control | viability (ATP), % of control
Disp1 | 1 | 80 | 103
Disp1 | 2 | 109 | 73.8
Disp1 | 3 | 76.3 | 82.3
Olfm3 | 1 | 70.1 | 93.6
Olfm3 | 2 | 79.9 | 100
Olfm3 | 3 | 16.9 | 20.3
E2f1 | 1 | 71.1 | 73.1
E2f1 | 2 | 89 | 75.4
Oaz3 | 1 | 86.6 | 96.9
Oaz3 | 2 | 88.2 | 67.1
Nr2f2 | 1 | 65.2 | 96.2
Nr2f2 | 2 | 112 | 97
Vmn1r50 | 1 | 81.7 | 67.3
Vmn1r50 | 2 | 88.8 | 89.8
Vmn1r50 | 3 | 51.9 | 67.6
Klhl31 | 1 | 86.6 | 90.7
Klhl31 | 2 | 48.4 | 40.3
Klhl31 | 3 | 68.4 | 68.1
Klhl31 | 4 | 79.3 | 71.6
Klhl31 | 5 | 68 | 79.7
Klhl31 | 6 | 56.4 | 92.2
Ctsl | 1 | 93 | 63.8
Ctsl | 2 | 58.1 | 64.9
Ctsl | 3 | 68.7 | 61.3
Aurkaip1 | 1 | 122 (active) | 86.2
Aurkaip1 | 2 | 76.9 | 79.3
Zfp326 | 1 | 56.7 | 51.3
Zfp326 | 2 | 79.5 | 83.7
Zfp326 | 3 | 85.9 | 99.8
Ccdc71 | 1 | 76.8 | 25.6
Ccdc71 | 2 | 36.3 | 40.4
Ccdc71 | 3 | 73.5 | 72.1
Rpl11 | 1 | 32.8 | 44.1
Rpl11 | 2 | 53.1 | 36.3
Rpl11 | 3 | 61 | 62.7
Ca13 | 1 | 35.9 | 39.3
Ca13 | 2 | 91.2 | 72.5
Arhgef37 | 1 | 59.2 | 57
Arhgef37 | 2 | 69 | 82.1
Arhgef37 | 3 | 150 (active) | 118
